{"source": "PubChem BioAssay AID540276", "about": "(National Center for Advancing Translational Sciences (NCATS), 2011)", "note": "About 5,400 (1.8%) of roughly 300,000 compounds were called active. This list was built around the results that the source calls inconclusive (neither active nor inactive); the mix of calls is not that of the screen. Calls follow the shape of the full dose curve; tested in HEK293 cells. Potencies of inconclusive entries are doubtful fits and often do not repeat. % is scaled to controls: 0 for no effect and ±100 for the full control effect; potency is read from the fitted curve at half-maximal effect."}
{"experiment": "qHTS for inhibitors of binding or entry into cells for Marburg Virus", "conditions": "Marburg virus pseudotyped entry inhibition, cell reporter; activity change, negative = inhibition: at 37.8 µM (top of the series) unless noted"}
{"smiles": "O=c1[nH]c(CN2CCOCC2)nc2scc(-c3ccccc3)c12", "Potency": "inconclusive: 1.41 µM [inhibitor, partial curve]"}
{"smiles": "CCCSc1nnc(CSc2nc3ccccc3s2)n1-c1ccccc1", "Potency": "inconclusive: 0.82 µM [activator, single point]"}
{"smiles": "Cc1ccc2nc(N3CCN(Cc4nnnn4C4CCCC4)CC3)c(C#N)cc2c1", "Potency": "inconclusive: 14.6 µM [inhibitor, single point]"}
{"smiles": "CC(Sc1nnc(NC2CCCCC2)s1)C(=O)Nc1ccc2c(c1)C(=O)c1ccccc1C2=O", "note": "(stereo unspecified)", "Potency": "inconclusive: 8.91 µM [inhibitor, partial curve, poor fit]"}
{"smiles": "O=C(CC1(O)C(=O)Nc2cc(Cl)cc(Cl)c21)c1ccccc1O", "note": "(stereo unspecified)", "Potency": "inconclusive: 12.6 µM [inhibitor, single point]"}
{"smiles": "O=C(NCCc1ccccc1)c1coc(=O)c(Br)c1", "Potency": "inconclusive: 8.91 µM [inhibitor, partial curve, poor fit]"}
{"smiles": "Cc1ccc(OCCCC(=O)Nc2nccs2)cc1", "Potency": "inactive"}
{"smiles": "CC1=CC(=C2C(=O)NC(=O)NC2=O)C=C(C(F)(F)F)N1Cc1ccccc1", "Potency": "inconclusive: 14.1 µM [inhibitor, partial curve, poor fit]"}
{"smiles": "C/C(=N\\NC(=O)c1cc2ccccc2cc1O)c1ccc(C)o1", "Potency": "inactive"}
{"smiles": "O=C(CCN1C(=O)c2ccccc2C1=O)NC(=S)Nc1ccccc1Cl", "Potency": "inconclusive: 29.1 µM [activator, single point]"}
{"smiles": "COC(=O)c1ccc2c(=O)n(CCCCCC(=O)N3CCN(c4ccccc4)CC3)c(=O)[nH]c2c1", "Potency": "inconclusive: 10 µM [inhibitor, partial curve, poor fit]"}
{"smiles": "CCCCN(C(=O)c1[nH]c(C)c(C(C)=O)c1C)c1c(N)n(CCCC)c(=O)[nH]c1=O", "Potency": "inactive"}
{"smiles": "COc1ccccc1N1CCN(c2ccc([N+](=O)[O-])cc2Cl)CC1", "Potency": "inconclusive: 3.55 µM [inhibitor, partial curve, poor fit]"}
{"smiles": "CC1(C(=O)Nc2cccc(Br)c2)Cc2ccccc2C(=O)O1", "note": "(stereo unspecified)", "Potency": "inactive"}
{"smiles": "CCOc1ccc(C2/C(=C(/O)c3ccc(Cl)cc3)C(=O)C(=O)N2CCCN(C)C)cc1OC", "note": "(stereo unspecified)", "Potency": "inactive"}
{"smiles": "O=C(NN=C(Cc1ccccc1)Cc1ccccc1)c1ccc(F)cc1", "Potency": "inactive"}
{"smiles": "c1coc(-c2nc3ccccc3nc2-c2ccco2)c1", "Potency": "inconclusive: 0.103 µM [inhibitor, partial curve, poor fit]"}
{"smiles": "CCN(CC)CCC(=O)Nc1ccc2c(c1)N(C(=O)CN(CC)CC)c1ccccc1CC2", "Potency": "active: 6.31 µM"}
{"smiles": "O=C(NCc1ccc(Cl)cc1)c1ccc2c(=O)n(CC3CCCO3)c(=S)[nH]c2c1", "note": "(stereo unspecified)", "Potency": "inactive"}
{"smiles": "COc1ccccc1NS(=O)(=O)c1ccc(Cl)cc1", "Potency": "inactive"}
{"smiles": "O=C(NCC1CCCO1)c1ccc(C(=O)NCC2CCCO2)cc1", "note": "(stereo unspecified)", "Potency": "inactive"}
{"smiles": "CC(=O)c1ccc(NC(=O)Cc2cccs2)cc1", "Potency": "inconclusive: 6.31 µM [activator, partial curve, poor fit]"}
{"smiles": "O=C(Nc1cc(NC(=O)c2ccccc2F)ccc1Cl)c1ccccc1", "Potency": "inconclusive: 5.62 µM [inhibitor, single point]"}
{"smiles": "Cn1c(=O)c(=O)n(C)c2cc(S(=O)(=O)N3CCCC3C(=O)Nc3ccccc3F)ccc21", "note": "(stereo unspecified)", "Potency": "inconclusive: 25.1 µM [inhibitor, partial curve, poor fit]"}
{"smiles": "Cc1ccc2nc(SCC(=O)N3CCN(c4ccccc4)CC3)[nH]c2c1", "Potency": "inactive"}
{"smiles": "CCCn1nc(C(=O)Nc2cccc(C(=O)OC)c2)c2ccccc2c1=O", "Potency": "inconclusive: 9.2 µM [inhibitor, single point]"}
{"smiles": "CC1CCN(C(=O)CCc2nnc3ccc(NCc4ccco4)nn23)CC1", "Potency": "active: 3.16 µM"}
{"smiles": "O=C(NCCc1ccccc1)c1ccc2c(c1)N(Cc1c(F)cccc1Cl)C(=O)CS2", "Potency": "inconclusive: 35.5 µM [inhibitor, single point]"}
{"smiles": "COc1ccccc1CNC(=O)CSc1ccc(-c2cccs2)nn1", "Potency": "inactive"}
{"smiles": "N#Cc1c(-c2ccccc2)ccnc1N1CCOCC1", "Potency": "inactive"}
{"smiles": "COC(=O)c1ccc(NC(=S)NC2CCCCC2C)cc1", "note": "(stereo unspecified)", "Potency": "inactive"}
{"smiles": "CN(C(=O)COC(=O)CNC(=O)c1sc2ccccc2c1Cl)c1ccccc1", "Potency": "inactive"}
{"smiles": "COc1ccc(OC)c(NC(=O)Nc2cc(NC(=O)Nc3cc(OC)ccc3OC)c(C)nc2C)c1", "Potency": "inconclusive: 0.282 µM [inhibitor, full curve, poor fit]"}
{"smiles": "Cc1ccc(-n2ccc(=O)c(-c3ccnc(SCc4cccc(Cl)c4)n3)n2)cc1", "Potency": "inconclusive: 22.4 µM [inhibitor, single point]"}
{"smiles": "Cc1ccsc1C(=O)N1CCCC(CO)(Cc2ccccc2)C1", "note": "(stereo unspecified)", "Potency": "inactive"}
{"smiles": "Cc1ccc2nc(N(CCCN(C)C)C(=O)c3ccc(S(=O)(=O)N4CCc5ccccc5C4)cc3)sc2c1", "Potency": "inconclusive: 35.5 µM [inhibitor, single point]"}
{"smiles": "CCCc1cc(Nc2c(C)n(C)n(-c3ccccc3)c2=O)n2c(nc3ccccc32)c1C#N", "Potency": "inactive"}
{"smiles": "O=C(NC1CCCCC1)C(c1cccs1)N(Cc1cccs1)C(=O)c1cccs1", "note": "(stereo unspecified)", "Potency": "inconclusive: 35.5 µM [inhibitor, single point]"}
{"smiles": "S=C(NN=Cc1ccc2c(c1)OCO2)NN=Cc1ccc2c(c1)OCO2", "Potency": "inconclusive: 35.5 µM [inhibitor, single point]"}
{"smiles": "COc1ccc(-c2cc(C(=O)N/N=C(\\C)c3cccnc3)c3ccccc3n2)cc1", "Potency": "inactive"}
{"smiles": "Cc1ccc(S(=O)(=O)NC2CCOC(C)(C)C2)cc1", "note": "(stereo unspecified)", "Potency": "inconclusive: 1.26 µM [activator, single point]"}
{"smiles": "COc1ccc(Cc2noc(-c3ccc(C)cc3)n2)cc1", "Potency": "inactive"}
{"smiles": "COc1ccc(COc2cc(-c3cccc(OC)c3)nc3ccc(NC(=O)c4ccc(Cl)cc4)cc23)cc1", "Potency": "inactive"}
{"smiles": "O=C(N/N=C/c1ccccc1OC(=O)c1ccc2c(c1)OCO2)c1cccc(F)c1", "Potency": "inconclusive: 35.5 µM [inhibitor, single point]"}
{"smiles": "COc1ccccc1CN1C(=S)SC(C)(C)C1NO", "note": "(stereo unspecified)", "Potency": "inconclusive: 2.24 µM [inhibitor, partial curve, poor fit]"}
{"smiles": "O=C(C1CC1)N1CCc2cc(S(=O)(=O)NCC3COc4ccccc4O3)ccc21", "note": "(stereo unspecified)", "Potency": "inconclusive: 10 µM [inhibitor, partial curve, poor fit]"}
{"smiles": "Cc1ccc(N(CC(=O)N2CCN(c3ccccc3F)CC2)S(=O)(=O)c2c(C)noc2C)cc1", "Potency": "inconclusive: 2.82 µM [inhibitor, partial curve, poor fit]"}
{"smiles": "O=C(C1CCN(S(=O)(=O)c2cccc3nsnc23)CC1)N1CCc2ccccc21", "Potency": "inactive"}
{"smiles": "O=C1C(C=NCCCn2ccnc2)=C(O)c2ccccc21", "Potency": "inconclusive: 0.116 µM [inhibitor, full curve]"}
{"smiles": "Cc1ccc(CCNC(=O)C(NS(=O)(=O)c2ccc3c(c2)oc(=O)n3C)C(C)C)cc1", "note": "(stereo unspecified)", "Potency": "inconclusive: 22.4 µM [inhibitor, single point]"}
{"smiles": "COc1ccc([C@]23Cc4cc(C#N)ccc4C(O2)c2c(c4ccc(OC)cc4oc2=O)O3)cc1", "Potency": "inconclusive: 0.531 µM [inhibitor, partial curve, poor fit]"}
{"smiles": "CC(=O)c1ccc(S(=O)(=O)N2CCN(C(=O)c3ccc(N)c([N+](=O)[O-])c3)CC2)cc1", "Potency": "inactive"}
{"smiles": "COc1ccc(C(=O)Nc2nc(-c3ccccc3)c(C(C)=O)s2)c(OC)c1", "Potency": "inconclusive: 22.4 µM [activator, partial curve, poor fit]"}
{"smiles": "CC1CCC/C(=C\\Nc2ccc(C(=O)O)cc2)C1=O", "note": "(stereo unspecified)", "Potency": "inconclusive: 10 µM [inhibitor, partial curve, poor fit]"}
{"smiles": "COc1ccc(C(C)=O)cc1CSc1nnc(-c2ccncc2)n1C", "Potency": "inactive"}
{"smiles": "CCc1nnc(NC(=O)Cc2ccc(Br)cc2)s1", "Potency": "inactive"}
{"smiles": "CCn1ncc(NC(=S)Nc2ccc3c(c2)OCO3)c1C(N)=O", "Potency": "inactive"}
{"smiles": "CC1(C)c2ccccc2-c2nc3ccccc3cc2C1N1CCOCC1", "note": "(stereo unspecified)", "Potency": "inconclusive: 6.31 µM [inhibitor, full curve, poor fit]"}
{"smiles": "O=C(Cn1cnc2ccccc2c1=O)Nc1nnc(C2CC2)s1", "Potency": "inconclusive: 0.112 µM [activator, full curve, poor fit]"}
{"smiles": "Cc1cc(Cl)n2nc(C)c(-c3ccc(Cl)cc3)c2n1", "Potency": "inconclusive: 12.6 µM [inhibitor, partial curve, poor fit]"}
{"smiles": "COc1cc2c(oc(=O)c3cc(C)cc(OC)c32)c2c(C3OC(C)C(O)C(C)(O)C3O)ccc(O)c12", "note": "(stereo unspecified)", "Potency": "inconclusive: 5.01 µM [inhibitor, full curve, poor fit]"}
{"smiles": "Cc1ccc(CNS(=O)(=O)NCc2ccccc2)cc1", "activity change, negative = inhibition": "inconclusive: 5.42% [activator]"}
{"smiles": "COc1ccc(/C=N/NC(=O)CNc2c(Br)cc(C)cc2Br)c(C(=O)O)c1OC", "Potency": "inconclusive: 17.8 µM [activator, single point]"}
{"smiles": "CN(C)CCCCOc1ccc(F)cc1", "Potency": "inactive"}
{"smiles": "CN(C)C(CNC(=O)c1oc2ccccc2c1CSc1ncn[nH]1)c1ccco1", "note": "(stereo unspecified)", "Potency": "inconclusive: 10 µM [inhibitor, partial curve, poor fit]"}
{"smiles": "COc1cccc(N2CCN(CC(=O)NC(=O)NC3CCCCC3)CC2)c1", "Potency": "inconclusive: 2.82 µM [inhibitor, full curve, poor fit]"}
{"smiles": "CCC1CCCCN1C(=O)Cn1c(=O)oc2cc(S(=O)(=O)N3CCCCC3)ccc21", "note": "(stereo unspecified)", "Potency": "inactive"}
{"smiles": "O=C(NCCN1CCOCC1)c1cc(-c2cccc(Cl)c2)on1", "Potency": "inactive"}
{"smiles": "CC(C)CC(=O)Nc1cccc(-c2cn3ccsc3n2)c1", "Potency": "inconclusive: 2.51 µM [activator, full curve, poor fit]"}
{"smiles": "COc1ccc(F)cc1C(=O)C1CCCN(Cc2cn(C)c3ccccc23)C1", "note": "(stereo unspecified)", "Potency": "active: 14.6 µM"}
{"smiles": "CCOCC(=O)Nc1c(C(=O)OCC)oc2ccccc12", "Potency": "inactive"}
